No constants are given. Whether binding was seen depends on the method and setting. Binding seen in cells or lysates may run through a third protein. Some results given as binding are weak or reduced against the parent protein; the word gives no strength. Sequences can lack the tags named with a protein.

The target of assay [1] is T1, HAI-2 (hepatocyte growth factor activator inhibitor-2) with c-Myc and His tags, overexpressed in N2 cells (human), O43291.
T1 chain: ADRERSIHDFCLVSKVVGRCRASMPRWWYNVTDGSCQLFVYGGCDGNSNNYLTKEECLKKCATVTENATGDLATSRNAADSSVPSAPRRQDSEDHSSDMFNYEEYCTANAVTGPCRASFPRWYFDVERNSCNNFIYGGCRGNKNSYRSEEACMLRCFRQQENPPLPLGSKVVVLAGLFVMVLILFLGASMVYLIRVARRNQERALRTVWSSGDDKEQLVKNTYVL
Description: co-IP; HAI-2 (c-Myc tag) immunoprecipitated with anti-c-Myc mAb and protein G magnetic beads from lysates of HAI-2-overexpressing N2 cells (0.5% NP-40, 150 mM NaCl, 50 mM Tris pH 7.0); mouse IgG as control; blot with anti-matriptase and anti-HAI-2 pAbs. The settings on record: remark: other sources report otherwise.

For assay [2], the target named is T2, matriptase with a V5 tag, overexpressed in HEK293T cells (human), Q9Y5Y6.
T2 chain: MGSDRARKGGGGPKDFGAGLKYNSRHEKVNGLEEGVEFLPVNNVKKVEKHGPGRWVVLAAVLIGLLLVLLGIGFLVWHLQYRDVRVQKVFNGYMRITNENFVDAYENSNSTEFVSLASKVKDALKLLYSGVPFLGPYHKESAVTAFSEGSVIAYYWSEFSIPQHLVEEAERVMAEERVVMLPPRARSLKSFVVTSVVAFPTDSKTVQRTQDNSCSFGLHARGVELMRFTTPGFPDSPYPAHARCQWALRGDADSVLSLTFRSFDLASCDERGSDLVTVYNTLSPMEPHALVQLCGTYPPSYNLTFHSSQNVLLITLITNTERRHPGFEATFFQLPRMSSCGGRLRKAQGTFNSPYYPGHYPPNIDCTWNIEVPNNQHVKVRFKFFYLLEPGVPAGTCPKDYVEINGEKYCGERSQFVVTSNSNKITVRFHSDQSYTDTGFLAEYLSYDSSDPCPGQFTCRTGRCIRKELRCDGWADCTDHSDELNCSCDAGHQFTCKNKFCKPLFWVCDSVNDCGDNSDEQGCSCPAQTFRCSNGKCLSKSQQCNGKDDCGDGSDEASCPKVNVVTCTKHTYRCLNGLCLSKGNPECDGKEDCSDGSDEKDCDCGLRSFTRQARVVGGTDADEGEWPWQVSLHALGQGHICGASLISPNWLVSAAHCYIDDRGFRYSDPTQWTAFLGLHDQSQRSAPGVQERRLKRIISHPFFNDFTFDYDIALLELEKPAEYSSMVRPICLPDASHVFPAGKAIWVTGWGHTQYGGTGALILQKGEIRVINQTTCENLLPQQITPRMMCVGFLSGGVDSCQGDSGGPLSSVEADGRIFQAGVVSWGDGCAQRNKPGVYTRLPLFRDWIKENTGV
In words: co-IP; matriptase (V5 tag) immunoprecipitated with anti-V5 mAb and protein G magnetic beads from lysates of HEK293T cells transiently transfected with matriptase and HAI-2 plasmids (0.5% NP-40, 150 mM NaCl, 50 mM Tris pH 7.0); blot with anti-V5 mAb and anti-HAI-2 pAb. The settings on record: remark: other sources report otherwise.

B1: matriptase, endogenous in N2 cells, Q9Y5Y6 1-855 (protein)
chain: MGSDRARKGGGGPKDFGAGLKYNSRHEKVNGLEEGVEFLPVNNVKKVEKHGPGRWVVLAAVLIGLLLVLLGIGFLVWHLQYRDVRVQKVFNGYMRITNENFVDAYENSNSTEFVSLASKVKDALKLLYSGVPFLGPYHKESAVTAFSEGSVIAYYWSEFSIPQHLVEEAERVMAEERVVMLPPRARSLKSFVVTSVVAFPTDSKTVQRTQDNSCSFGLHARGVELMRFTTPGFPDSPYPAHARCQWALRGDADSVLSLTFRSFDLASCDERGSDLVTVYNTLSPMEPHALVQLCGTYPPSYNLTFHSSQNVLLITLITNTERRHPGFEATFFQLPRMSSCGGRLRKAQGTFNSPYYPGHYPPNIDCTWNIEVPNNQHVKVRFKFFYLLEPGVPAGTCPKDYVEINGEKYCGERSQFVVTSNSNKITVRFHSDQSYTDTGFLAEYLSYDSSDPCPGQFTCRTGRCIRKELRCDGWADCTDHSDELNCSCDAGHQFTCKNKFCKPLFWVCDSVNDCGDNSDEQGCSCPAQTFRCSNGKCLSKSQQCNGKDDCGDGSDEASCPKVNVVTCTKHTYRCLNGLCLSKGNPECDGKEDCSDGSDEKDCDCGLRSFTRQARVVGGTDADEGEWPWQVSLHALGQGHICGASLISPNWLVSAAHCYIDDRGFRYSDPTQWTAFLGLHDQSQRSAPGVQERRLKRIISHPFFNDFTFDYDIALLELEKPAEYSSMVRPICLPDASHVFPAGKAIWVTGWGHTQYGGTGALILQKGEIRVINQTTCENLLPQQITPRMMCVGFLSGGVDSCQGDSGGPLSSVEADGRIFQAGVVSWGDGCAQRNKPGVYTRLPLFRDWIKENTGV
Turning to B1, the binding entry in assay [1] is “binds”.

B2: HAI-2 overexpressed in HEK293T cells, O43291 28-252 (protein)
chain: ADRERSIHDFCLVSKVVGRCRASMPRWWYNVTDGSCQLFVYGGCDGNSNNYLTKEECLKKCATVTENATGDLATSRNAADSSVPSAPRRQDSEDHSSDMFNYEEYCTANAVTGPCRASFPRWYFDVERNSCNNFIYGGCRGNKNSYRSEEACMLRCFRQQENPPLPLGSKVVVLAGLFVMVLILFLGASMVYLIRVARRNQERALRTVWSSGDDKEQLVKNTYVL
B2: the binding result in assay [2] was “binds”.

Source of the values: PMC5678078 (2017).
